Record: PubChem BioAssay AID504791 (Drosophila RNAi Screening Center, 2011)
The deposit covers about 23,000 reagents; below is an unselected part of those that have a named target and a result. Of all reagents, 199 (0.86%) were called active. 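Plate-scaled ratios behind the calls are not deposited; printed light signals are raw; many rows marked increased or decreased are still called inactive.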 A plus sign joins genes that one reagent is predicted to hit. No sequences are given here. The record does not give: the direction of the score.

Test: 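Factors in Argonaute-based small RNA production and activity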 (primary screen)
Cell system: Drosophila S2-derived reporter cells
Reagent: long dsRNA against Drosophila genes, about 150-250 ng dsRNA per well (siRNA assay); about 80-120 ng (miRNA assay)
Time to read-out: about 5 days (siRNA assay); about 4 days (miRNA assay)
Challenge: copper sulfate induction of reporters: 25 µM (siRNA assay); 200 mM stated (miRNA assay), 1-2 days before reading
Measured: 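Dual luciferase assay: Renilla to firefly signal ratio in each well, scaled to the mean ratio of its plate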
Hit rule: 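a well was a first-pass pick when its plate-scaled ratio rose above 1.5 (siRNA assay) or 1.6 (miRNA assay), or dropped below 0.6; a gene counted only if two separate dsRNAs agreed on retest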

Target gene | DRSC id | stable siRNA reporter change | miRNA reporter change | stable assay Renilla, run 1 (luminescence) | stable assay firefly, run 1 (luminescence) | Call
Rcd-1r + CG13102 | DRSC03266 | – | – | 6782 | 3.66e5 | inactive
CG15930 | DRSC18107 | – | – | 6134 | 4.43e5 | inactive
Wsck | DRSC13682 | – | – | 6084 | 3.80e5 | inactive
CG4577 | DRSC00658 | – | – | 8878 | 4.96e5 | inactive
CG30053 | DRSC07260 | – | – | 5278 | 2.72e5 | inactive
mRpL37 | DRSC16062 | – | – | 6614 | 4.08e5 | inactive
Adgf-A | DRSC10566 | – | – | 7730 | 2.85e5 | inactive
jp | DRSC02213 | – | – | 5798 | 3.43e5 | inactive
jp | DRSC02744 | – | – | 5707 | 2.77e5 | inactive
eIF4E5 | DRSC10975 | – | – | 7211 | 4.89e5 | inactive
l(3)87Df | DRSC16982 | reporter ratio lowered past the hit cutoff | – | 6363 | 5.81e5 | inactive
Xrp1 | DRSC15282 | – | – | 5372 | 2.27e5 | inactive
Xrp1 | DRSC15283 | reporter ratio lowered past the hit cutoff | – | 4684 | 4.02e5 | active
Xrp1 | DRSC28718 | – | reporter ratio lowered past the hit cutoff | – | – | active
Ptp4E | DRSC18701 | – | – | 8384 | 5.66e5 | inactive
Spred | DRSC05976 | – | – | 9048 | 3.90e5 | inactive
Lime | DRSC06752 | – | – | 6540 | 4.87e5 | inactive
grsm | DRSC14165 | reporter ratio lowered past the hit cutoff | – | 6206 | 5.73e5 | inactive
grsm | DRSC14843 | – | – | 6083 | 4.65e5 | inactive
Cln3 | DRSC10520 | – | – | 7825 | 3.85e5 | inactive
Pex16 | DRSC11750 | – | – | 9181 | 3.58e5 | inactive
Eb1 | DRSC05016 | – | – | 6598 | 4.82e5 | inactive
Dci | DRSC08360 | – | – | 3451 | 3.38e5 | inactive
CG5003 | DRSC15694 | – | – | 9695 | 6.57e5 | inactive
CG6296 | DRSC16013 | – | – | 8611 | 4.58e5 | inactive
CG42245 + MEP-1 | DRSC07993 | – | – | 4844 | 4.03e5 | inactive
CG42245 + MEP-1 | DRSC08274 | – | – | 10662 | 5.07e5 | inactive
CG42245 + MEP-1 | DRSC21460 | – | – | 7498 | 4.48e5 | inactive
CG3630 | DRSC18499 | – | – | 8970 | 4.44e5 | inactive
Sec3 | DRSC10384 | – | – | 7482 | 2.57e5 | inactive
CG7548 | DRSC10874 | – | – | 6674 | 3.98e5 | inactive
CG17361 | DRSC10266 | – | – | 6998 | 3.61e5 | inactive
SecCl | DRSC10887 | – | – | 7135 | 3.32e5 | inactive
Sfp53D | DRSC05625 | – | – | 5716 | 4.54e5 | inactive
hec | DRSC19895 | – | – | 5555 | 3.64e5 | inactive
SmydA-2 | DRSC10296 | – | – | 6820 | 4.46e5 | inactive
CG3638 | DRSC18533 | – | – | 6422 | 3.49e5 | inactive
CG34450 | DRSC17822 | – | – | 7971 | 5.48e5 | inactive
fd102C | DRSC17203 | – | – | 7439 | 3.16e5 | inactive
DIP2 | DRSC08582 | – | – | 10029 | 3.80e5 | inactive
CG2120 | DRSC18207 | – | – | 5227 | 2.87e5 | inactive
CG2120 | DRSC26944 | – | reporter ratio raised past the hit cutoff | – | – | inactive
CG8323 | DRSC07149 | – | – | 6198 | 4.37e5 | inactive
Sec10 | DRSC17053 | reporter ratio raised past the hit cutoff | – | 8434 | 2.18e5 | inactive
lncRNA:roX1 | DRSC21884 | – | – | 8862 | 4.76e5 | inactive
Rac2 | DRSC11262 | reporter ratio lowered past the hit cutoff | – | 4503 | 5.23e5 | inactive
CG14629 | DRSC18476 | – | – | 5400 | 3.45e5 | inactive
ben | DRSC20310 | – | – | 8583 | 5.43e5 | inactive
ben | DRSC21261 | – | – | 5607 | 3.40e5 | inactive
Tango5 | DRSC18023 | – | – | 6331 | 3.87e5 | inactive
Ir7d | DRSC18010 | – | – | 6767 | 4.32e5 | inactive
CG4230 | DRSC02740 | – | – | 8114 | 1.75e5 | inactive
CG33346 | DRSC22898 | – | – | 4487 | 3.96e5 | inactive
Cyp4d2 | DRSC18458 | – | – | 8518 | 4.31e5 | inactive
ck | DRSC03509 | – | – | 6870 | 1.39e6 | inactive
bol | DRSC08964 | reporter ratio raised past the hit cutoff | – | 2080 | 55952 | inactive
bol | DRSC10444 | – | – | 6135 | 4.72e5 | inactive
bol | DRSC11329 | – | – | 5395 | 4.06e5 | inactive
TbCMF46 | DRSC02221 | – | – | 6618 | 3.93e5 | inactive
Cap-G | DRSC06652 | – | – | 7175 | 4.99e5 | inactive
Cap-G | DRSC06653 | – | – | 6262 | 4.04e5 | inactive
Cap-G | DRSC21805 | – | – | 10094 | 3.69e5 | inactive
HIPP1 | DRSC11748 | – | – | 11179 | 3.35e5 | inactive
CG9192 | DRSC08639 | – | – | 5439 | 3.34e5 | inactive
Mrgn1 | DRSC20223 | – | – | 8573 | 6.03e5 | inactive
CG12020 | DRSC08226 | – | – | 4827 | 3.03e5 | inactive
ntc | DRSC08166 | – | – | 8302 | 4.53e5 | inactive
CG4622 | DRSC04479 | reporter ratio raised past the hit cutoff | – | 1.97e5 | 1.05e6 | inactive
beta-Man | DRSC12208 | – | – | 8586 | 2.89e5 | inactive
beta-Man | DRSC12209 | – | – | 7328 | 3.92e5 | inactive
CG17780 + CG17781 | DRSC15266 | – | – | 7512 | 3.40e5 | inactive
Tim8 | DRSC20291 | – | – | 4200 | 4.04e5 | inactive
scaf6 | DRSC10075 | – | – | 7447 | 2.75e5 | inactive
scaf6 | DRSC10676 | – | – | 5919 | 3.81e5 | inactive
scaf6 | DRSC10678 | – | – | 6352 | 2.66e5 | inactive
Hsf | DRSC07443 | – | – | 9106 | 3.26e5 | inactive
PH4alphaEFB | DRSC14473 | – | – | 6835 | 4.25e5 | inactive
PH4alphaEFB | DRSC14950 | – | – | 6079 | 4.02e5 | inactive
CG15210 | DRSC19656 | – | – | 6491 | 5.22e5 | inactive
CG32301 | DRSC08613 | – | – | 5599 | 3.21e5 | inactive
Idgf5 | DRSC06919 | – | – | 8894 | 3.00e5 | inactive
CG12880 | DRSC14568 | – | – | 7123 | 4.26e5 | inactive
Kaz1-ORFB + Kaz1-ORFA | DRSC08669 | – | – | 6519 | 4.21e5 | inactive

Already shown: an excerpt of the list.
Target gene | DRSC id | stable siRNA reporter change | miRNA reporter change | stable assay Renilla, run 1 (luminescence) | stable assay firefly, run 1 (luminescence) | Call
HIPP1 | DRSC11748 | – | – | 11179 | 3.35e5 | inactive
CG9192 | DRSC08639 | – | – | 5439 | 3.34e5 | inactive
Mrgn1 | DRSC20223 | – | – | 8573 | 6.03e5 | inactive
CG12020 | DRSC08226 | – | – | 4827 | 3.03e5 | inactive
ntc | DRSC08166 | – | – | 8302 | 4.53e5 | inactive
CG4622 | DRSC04479 | reporter ratio raised past the hit cutoff | – | 1.97e5 | 1.05e6 | inactive
